Results are given in words; binding and its absence hold for the method and conditions named. In cells and extracts the contact can be indirect. Here binding means that the protein was enriched with, or labelled near, the bait; the list need not be complete. No binding means not detected with the bait. Tags and fused reporters may be left off the sequences shown.
T1: His-ICP22^CCR (HSV-1) (UniProt P04485)
T1 sequence: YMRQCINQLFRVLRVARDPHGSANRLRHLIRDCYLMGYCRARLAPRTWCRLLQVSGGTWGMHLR

Chains of the proteins cited; added tags and fusions are not shown.
UniProt P21127: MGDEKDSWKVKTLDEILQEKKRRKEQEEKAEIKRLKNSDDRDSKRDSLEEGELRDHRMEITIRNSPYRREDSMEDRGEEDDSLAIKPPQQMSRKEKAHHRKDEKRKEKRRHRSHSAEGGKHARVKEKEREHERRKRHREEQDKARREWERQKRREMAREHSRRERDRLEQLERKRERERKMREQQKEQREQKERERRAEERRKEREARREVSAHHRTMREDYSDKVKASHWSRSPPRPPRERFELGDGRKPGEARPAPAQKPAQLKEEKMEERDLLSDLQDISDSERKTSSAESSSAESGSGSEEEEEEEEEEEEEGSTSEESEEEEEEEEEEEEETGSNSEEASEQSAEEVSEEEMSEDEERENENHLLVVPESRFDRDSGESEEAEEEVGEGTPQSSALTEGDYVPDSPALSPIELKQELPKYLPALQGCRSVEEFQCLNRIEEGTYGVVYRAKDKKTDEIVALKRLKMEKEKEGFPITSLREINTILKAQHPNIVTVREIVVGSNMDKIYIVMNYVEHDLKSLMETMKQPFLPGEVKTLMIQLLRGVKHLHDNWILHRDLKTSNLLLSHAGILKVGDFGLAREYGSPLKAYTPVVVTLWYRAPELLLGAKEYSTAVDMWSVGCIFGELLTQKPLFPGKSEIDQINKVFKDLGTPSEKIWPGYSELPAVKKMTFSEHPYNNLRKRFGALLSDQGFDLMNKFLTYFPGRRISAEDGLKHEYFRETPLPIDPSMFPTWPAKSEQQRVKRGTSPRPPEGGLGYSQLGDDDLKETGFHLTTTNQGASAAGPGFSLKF
UniProt Q14004: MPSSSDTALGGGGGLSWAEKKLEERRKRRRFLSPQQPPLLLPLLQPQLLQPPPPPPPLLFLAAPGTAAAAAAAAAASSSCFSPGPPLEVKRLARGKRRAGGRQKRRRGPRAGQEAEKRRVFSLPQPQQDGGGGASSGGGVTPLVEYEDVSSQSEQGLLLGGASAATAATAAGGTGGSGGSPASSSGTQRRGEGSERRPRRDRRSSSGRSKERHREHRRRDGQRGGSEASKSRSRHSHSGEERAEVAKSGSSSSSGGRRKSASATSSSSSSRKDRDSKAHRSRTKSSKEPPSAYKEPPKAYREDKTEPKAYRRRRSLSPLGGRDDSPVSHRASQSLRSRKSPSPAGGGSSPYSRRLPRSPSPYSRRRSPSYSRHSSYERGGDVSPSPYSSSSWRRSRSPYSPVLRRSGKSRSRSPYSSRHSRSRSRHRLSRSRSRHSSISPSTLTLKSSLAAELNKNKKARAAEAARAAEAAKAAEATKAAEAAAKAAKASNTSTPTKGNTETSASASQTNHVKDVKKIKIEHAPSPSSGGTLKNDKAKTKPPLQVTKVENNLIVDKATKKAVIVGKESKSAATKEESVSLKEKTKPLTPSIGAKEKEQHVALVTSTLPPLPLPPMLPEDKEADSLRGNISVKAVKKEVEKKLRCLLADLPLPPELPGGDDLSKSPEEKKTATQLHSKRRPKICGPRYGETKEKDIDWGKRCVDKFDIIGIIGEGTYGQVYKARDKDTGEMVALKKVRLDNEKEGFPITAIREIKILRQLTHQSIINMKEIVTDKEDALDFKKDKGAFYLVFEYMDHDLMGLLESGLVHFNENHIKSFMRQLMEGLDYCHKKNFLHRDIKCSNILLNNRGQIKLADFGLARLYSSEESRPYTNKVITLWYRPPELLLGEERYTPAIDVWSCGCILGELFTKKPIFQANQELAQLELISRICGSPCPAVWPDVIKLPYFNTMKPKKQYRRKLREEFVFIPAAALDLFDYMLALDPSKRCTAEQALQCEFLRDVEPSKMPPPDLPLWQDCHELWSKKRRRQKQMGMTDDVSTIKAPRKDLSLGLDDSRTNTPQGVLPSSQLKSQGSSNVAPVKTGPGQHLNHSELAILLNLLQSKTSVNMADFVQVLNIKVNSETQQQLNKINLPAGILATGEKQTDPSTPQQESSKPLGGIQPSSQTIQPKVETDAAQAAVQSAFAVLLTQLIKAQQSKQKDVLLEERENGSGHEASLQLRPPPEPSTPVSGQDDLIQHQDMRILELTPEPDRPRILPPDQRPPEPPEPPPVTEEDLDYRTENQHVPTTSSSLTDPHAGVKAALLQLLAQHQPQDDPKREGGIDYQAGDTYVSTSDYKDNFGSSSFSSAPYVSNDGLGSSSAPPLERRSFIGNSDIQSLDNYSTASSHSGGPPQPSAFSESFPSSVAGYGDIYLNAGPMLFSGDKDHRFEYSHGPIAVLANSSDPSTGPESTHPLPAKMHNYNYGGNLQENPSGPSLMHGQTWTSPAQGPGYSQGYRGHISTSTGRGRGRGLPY
UniProt P50750: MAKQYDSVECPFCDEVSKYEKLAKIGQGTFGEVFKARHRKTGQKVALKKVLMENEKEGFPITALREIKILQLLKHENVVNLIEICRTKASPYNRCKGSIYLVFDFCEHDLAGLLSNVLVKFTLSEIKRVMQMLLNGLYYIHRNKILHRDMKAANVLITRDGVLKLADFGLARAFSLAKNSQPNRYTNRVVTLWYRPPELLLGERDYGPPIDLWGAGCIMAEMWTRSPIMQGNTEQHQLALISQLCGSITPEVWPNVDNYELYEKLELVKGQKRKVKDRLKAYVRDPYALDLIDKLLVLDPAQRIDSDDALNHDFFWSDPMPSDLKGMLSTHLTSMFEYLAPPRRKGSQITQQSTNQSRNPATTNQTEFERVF
UniProt Q8IZL9: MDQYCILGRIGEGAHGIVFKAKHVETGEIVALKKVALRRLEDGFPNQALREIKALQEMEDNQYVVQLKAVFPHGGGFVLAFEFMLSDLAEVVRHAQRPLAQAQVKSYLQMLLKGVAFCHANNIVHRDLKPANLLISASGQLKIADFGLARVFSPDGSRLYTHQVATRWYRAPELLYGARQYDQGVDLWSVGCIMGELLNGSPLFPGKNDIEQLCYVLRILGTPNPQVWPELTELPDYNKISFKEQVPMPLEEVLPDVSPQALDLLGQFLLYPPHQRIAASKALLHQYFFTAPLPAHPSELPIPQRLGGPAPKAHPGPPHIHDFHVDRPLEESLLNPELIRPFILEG

B1: Cyclin K (protein, UniProt O75909 1-580)
chain: MKENKENSSPSVTSANLDHTKPCWYWDKKDLAHTPSQLEGLDPATEARYRREGARFIFDVGTRLGLHYDTLATGIIYFHRFYMFHSFKQFPRYVTGACCLFLAGKVEETPKKCKDIIKTARSLLNDVQFGQFGDDPKEEVMVLERILLQTIKFDLQVEHPYQFLLKYAKQLKGDKNKIQKLVQMAWTFVNDSLCTTLSLQWEPEIIAVAVMYLAGRLCKFEIQEWTSKPMYRRWWEQFVQDVPVDVLEDICHQILDLYSQGKQQMPHHTPHQLQQPPSLQPTPQVPQVQQSQPSQSSEPSQPQQKDPQQPAQQQQPAQQPKKPSPQPSSPRQVKRAVVVSPKEENKAAEPPPPKIPKIETTHPPLPPAHPPPDRKPPLAAALGEAEPPGPVDATDLPKVQIPPPAHPAPVHQPPPLPHRPPPPPPSSYMTGMSTTSSYMSGEGYQSLQSMMKTEGPSYGALPPAYGPPAHLPYHPHVYPPNPPPPPVPPPPASFPPPAIPPPTPGYPPPPPTYNPNFPPPPPRLPPTHAVPPHPPPGLGLPPASYPPPAVPPGGQPPVPPPIPPPGMPPVGGLGRAAWMR
B2: Cyclin L1 (protein, UniProt Q9UK58 1-526)
chain: MASGPHSTATAAAAASSAAPSAGGSSSGTTTTTTTTTGGILIGDRLYSEVSLTIDHSLIPEERLSPTPSMQDGLDLPSETDLRILGCELIQAAGILLRLPQVAMATGQVLFHRFFYSKSFVKHSFEIVAMACINLASKIEEAPRRIRDVINVFHHLRQLRGKRTPSPLILDQNYINTKNQVIKAERRVLKELGFCVHVKHPHKIIVMYLQVLECERNQTLVQTAWNYMNDSLRTNVFVRFQPETIACACIYLAARALQIPLPTRPHWFLLFGTTEEEIQEICIETLRLYTRKKPNYELLEKEVEKRKVALQEAKLKAKGLNPDGTPALSTLGGFSPASKPSSPREVKAEEKSPISINVKTVKKEPEDRQQASKSPYNGVRKDSKRSRNSRSASRSRSRTRSRSRSHTPRRHYNNRRSRSGTYSSRSRSRSRSHSESPRRHHNHGSPHLKAKHTRDDLKSSNRHGHKRKKSRSRSQSKSRDHSDAAKKHRHERGHHRDRRERSRSFERSHKSKHHGGSRSGHGRHRR

Target: T1, His-ICP22^CCR (HSV-1)
Assay: affinity purification with mass spectrometry; His-ICP22^CCR (control His-IpgC) on nickel beads, HeLa nuclear extract diluted 1:1 with IP buffer and precleared, overnight; LC-MS/MS; at least two unique peptides in two independent experiments; only the target purified

| Molecule | binding |
| --- | --- |
| CDK11B (from UniProt P21127 1-795) | binds |
| CDK13 (from UniProt Q14004 1-1512) | binds |
| CDK9 (from UniProt P50750 1-372) | binds |
| CDK20 (from UniProt Q8IZL9 1-346) | no binding |
| B1 | binds |
| B2 | binds |
